The text below walks through data of article PMC10323247.

Results are given in words; binding and its absence hold for the method and conditions named. In cells and extracts the contact can be indirect. Some entries that bind do so weakly or less than the wild type. Sequences can lack the tags named with a protein.

The target in this experiment is T1, HAUS2 with C-terminal mGFP-TEV-TwinStrep tag (human) (UniProt Q9NVX0).
T1 sequence: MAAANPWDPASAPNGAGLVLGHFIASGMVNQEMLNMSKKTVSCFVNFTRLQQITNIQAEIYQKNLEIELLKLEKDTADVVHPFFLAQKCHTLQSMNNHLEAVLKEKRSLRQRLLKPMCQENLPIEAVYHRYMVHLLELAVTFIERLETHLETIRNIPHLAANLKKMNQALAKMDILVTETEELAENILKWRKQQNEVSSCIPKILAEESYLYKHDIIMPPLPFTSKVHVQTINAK
Put plainly: pull-down + SEC; eight subunits co-expressed in High Five cells; captured by the TwinStrep tag of HAUS2 on StrepTrap HP (lysis buffer with 400 mM NaCl), eluted with desthiobiotin, then Superose 6 Increase SEC (250 mM NaCl); subunits in fractions E2-E3 seen by SDS-PAGE and western blotting.

For the substance HAUS7 (from UniProt Q99871-1 1-358), the binding result is recorded as “binds”.
